Source: patent publication US20140120106A1, “Stimulation of Arterial Collateral Growth and Lymphogenesis” (YALE UNIVERSITY, priority 2011, published 2014)
At least one structure is not confirmed: it was looked up by name or label, or the drawing left a doubt.

Tests used:
[1] = tested on: ERK; test: ERK and AKT activation by western blot in BAEC treated with LY294002; type: cell-based, Bovine
[2] = tested on: HUVEC; test: Dll4 and Ephrin B2 expression (qPCR, western blot) in HUVEC treated with U0126 or LY294002; type: cell-based, Human
[3] = tested on: HUVEC; test: qPCR of lymphatic fate genes in RAF1-transduced HUVEC treated with pathway inhibitors for 24 hours; type: cell-based, Human; details: HUVEC with GFP or RAF1S259A adenovirus, Rapamycin 10 nM, AKT inhibitor VIII 1 μM
Description: ERK activation was quantified by densitometry and is represented as ratio of pERK1/2 versus total ERK1/2. Immunofluorescence staining showing higher P-ERK1/2 in β-GAL positive endothelial cells of E12.5 S259A embryos. jv, jugular vein. FIGS. 10B-10E are graphs showing HUVEC transduced with control, wild type Raf1 or RAF1S259A lentiviruses treated with DMSO, MEK inhibitor U0126 (10 μM) or PI3K inhibitor LY294002 (10 μM) for 24 hours. Sox18 (FIG. 10B), Prox1 (Figure), Vegfr3 (FIG. 10D) and Lyve1 (10E) expression was assessed by qPCR. FIGS. 10E-10H are graphs showing HUVEC transduced with GFP or RAF1S259A adenoviruses treated with DMSO, Rapamycin (10 nM), AKT inhibitor VIII (1 μM) and LY294002 (10 μM) for 24 hours. Sox18 (FIG. 10F), Prox1 (FIG. 10G) and Coup-TFII (FIG. 10H) expression assessed by qPCR. Data are Mean±SEM (n=3).*, p<0.05; **, p<0.01.
Total RNA was purified using a QiagenRNeasyPlus Mini kit. cDNA was synthesized using a Bio-Rad iScript cDNA Synthesisis kit. qPCR was performed using a Bio-Rad iQ SYBR Green Supermix on a Bio-Rad CFX96 Real Time System. For immunoblot, cells were lysed in RIPA buffer supplemented with protease and phosphatase inhibitors. Cell lysates were then separated with 4-20% gradient gel (Bio-Rad) and subjected to immunoblot.

[4] = 10 μM LY294002, 24 hours, all the cells (control, Raf1 WT, Raf1 S259A)

| SMILES | ERK activity ([1]; BAEC, 10 μM for 30 minutes, normal culture conditions) | VEGF-induced ERK activation ([1]; serum-starved BAEC pretreated 10 μM for 30 minutes, 50 ng/ml VEGF) | Dll4 mRNA level [2, 4] | Dll4 protein level [2, 4] | ERK activity ([2]; 10 μM LY294002, HUVEC) | Dll4 gene expression ([2]; wild type endothelial cells, 2 and 10 μM, 24 hours) | Coup-TFII expression [3] | Prox1 expression [3] | Sox18 expression [3] |
| --- | --- | --- | --- | --- | --- | --- | --- | --- | --- |
| O=c1cc(N2CCOCC2)oc2c(-c3ccccc3)cccc12 [LY294002] | modest increase | significant increase | modest but significant increase | modest but significant increase | slight increase | dose-dependent effect | – | – | – |
| CO[C@H]1C[C@@H]2CC[C@@H](C)[C@@](O)(O2)C(=O)C(=O)N2CCCC[C@H]2C(=O)O[C@H]([C@H](C)C[C@@H]2CC[C@@H](O)[C@H](OC)C2)CC(=O)[C@H](C)/C=C(\C)[C@@H](O)[C@@H](OC)C(=O)[C@H](C)C[C@H](C)/C=C/C=C/C=C/1C [Rapamycin] | – | – | – | – | – | – | significantly inhibited | significantly inhibited | slightly inducing |
